No constants are given. Whether binding was seen depends on the method and setting. For some of these results: Binding calls can cover weak binding; strength is not graded here. For some of these results: Where a sequence is shown, tags or fusion partners need not be part of it.
Tests used:
[1] = molecular target: CLEC14A lacking the sushi domain (human) (UniProt Q86T13); assay: far-Western; lysates of transfected HEK293T separated by SDS-PAGE under non-reducing conditions, on PVDF; probed 1 h with MMRN2^FL-transfected HEK293T lysate (6 x 10^6 cells/ml, diluted 1:50); His tag of the probe detected
[2] = molecular target: CLEC14A lacking the CTLD (human) (UniProt Q86T13); assay: as above
[3] = molecular target: chimera 2 CLEC14A^THBD(sushi); assay: flow cytometry on cells; transfected HEK293T (5 x 10^5) stained with biotinylated MMRN2^495-674 (20 μg/ml), detected with streptavidin-PE; GFP+ cells gated; only the binder purified
[4] = molecular target: chimera 1 CLEC14A^THBD(CTLD); assay: as above

Chains of the proteins cited; added tags and fusions are not shown. Lines headed by an entry give the natural chain unless they say otherwise; changes in a name come on top.
UniProt Q86T13: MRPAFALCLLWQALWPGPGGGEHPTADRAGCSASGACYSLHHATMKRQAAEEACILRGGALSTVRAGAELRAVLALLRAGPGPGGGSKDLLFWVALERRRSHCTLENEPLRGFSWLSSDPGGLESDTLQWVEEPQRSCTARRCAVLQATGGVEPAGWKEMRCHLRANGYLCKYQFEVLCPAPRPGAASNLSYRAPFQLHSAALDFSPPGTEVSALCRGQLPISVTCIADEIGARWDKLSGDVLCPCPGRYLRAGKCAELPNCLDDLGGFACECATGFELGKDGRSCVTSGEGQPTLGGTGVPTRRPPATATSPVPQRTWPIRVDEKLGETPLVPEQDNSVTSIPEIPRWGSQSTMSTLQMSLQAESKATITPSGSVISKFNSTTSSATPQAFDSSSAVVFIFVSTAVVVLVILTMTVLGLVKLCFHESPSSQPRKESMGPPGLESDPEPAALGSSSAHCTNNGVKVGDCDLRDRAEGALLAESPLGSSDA

“full-length multimerin-2 with a polyhistidine tag (MMRN2^FL) (from UniProt Q9H8L6 23-949)” was tested, and the binding [1] was “no binding (tested: lysate diluted 1:50)” and the binding [2] was “no binding (tested: lysate diluted 1:50)”.

B1: biotinylated MMRN2^495-674 with BirA tag, from E. coli (domain or fragment, UniProt Q9H8L6 495-674)
chain: QKLYLDLDVIREGQRDATRALEETQVSLDERRQLDGSSLQALQNAVDAVSLAVDAHKAEGERARAATSRLRSQVQALDDEVGALKAAAAEARHEVRQLHSAFAALLEDALRHEAVLAALFGEEVLEEMSEQTPGPLPLSYEQIRVALQDAASGLQEQALGWDELAARVTALEQASEPPRP
modifications: biotin (BirA tag for specific biotinylation)
B1 was tested, and the binding [3] was “binds” and the binding [4] was “no binding (tested: 20 μg/ml)”.

From article PMC5671938, “Multimerin-2 is a ligand for group 14 family C-type lectins CLEC14A, CD93 and CD248 spanning the endothelial pericyte interface” (Oncogene, 2017)
